Measurements published in PubChem BioAssay AID1559 (National Center for Advancing Translational Sciences (NCATS), 2009).
Inconclusive means that the source gave no clear call. Such entries were picked first, then a sample of the others. Potencies beside an inconclusive call are fits to weak or partial responses and may not hold up. Active and inactive are the calls of the source. Calls follow the shape of the dose curve; as a rule, active = well fitted curve in the direction sought with a large enough effect; inconclusive = small, poorly fitted or top-dose-only effect, or another doubt; inactive = no such curve, though single readings can be large or run the other way.

Chains of the proteins cited; added tags and fusions are not shown. Residues count along the entry.
UniProt P10636, whole entry, looked up: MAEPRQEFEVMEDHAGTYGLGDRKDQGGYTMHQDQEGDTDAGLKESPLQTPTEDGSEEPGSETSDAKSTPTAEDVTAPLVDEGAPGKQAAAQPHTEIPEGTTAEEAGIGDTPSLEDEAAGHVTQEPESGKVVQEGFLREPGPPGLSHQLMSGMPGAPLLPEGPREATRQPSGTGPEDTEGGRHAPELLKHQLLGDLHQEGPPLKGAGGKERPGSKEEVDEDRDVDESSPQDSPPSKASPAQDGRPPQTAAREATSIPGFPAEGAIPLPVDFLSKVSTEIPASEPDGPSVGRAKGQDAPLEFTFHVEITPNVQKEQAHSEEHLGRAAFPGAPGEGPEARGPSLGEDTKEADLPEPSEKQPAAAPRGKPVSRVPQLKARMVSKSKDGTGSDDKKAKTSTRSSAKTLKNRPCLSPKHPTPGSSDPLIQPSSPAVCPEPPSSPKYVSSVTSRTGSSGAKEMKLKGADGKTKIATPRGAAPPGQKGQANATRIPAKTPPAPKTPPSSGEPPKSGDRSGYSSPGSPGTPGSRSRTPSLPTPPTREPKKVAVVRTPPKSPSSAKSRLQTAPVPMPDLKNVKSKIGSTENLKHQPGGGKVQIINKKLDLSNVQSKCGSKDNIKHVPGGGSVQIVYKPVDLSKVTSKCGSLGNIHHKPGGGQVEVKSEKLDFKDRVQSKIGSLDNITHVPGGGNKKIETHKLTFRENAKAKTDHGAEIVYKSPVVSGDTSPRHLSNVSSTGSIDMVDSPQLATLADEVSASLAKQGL
UniProt P10636, 561-689 P618L limits assumed: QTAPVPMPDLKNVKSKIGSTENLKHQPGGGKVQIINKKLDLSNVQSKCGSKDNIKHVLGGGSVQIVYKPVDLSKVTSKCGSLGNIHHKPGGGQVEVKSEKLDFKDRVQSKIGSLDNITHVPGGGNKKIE

target: Microtubule-associated protein tau (Homo sapiens) (UniProt P10636); assay: Confirmation Concentration-Response Assay for Inhibitors of Tau Fibril Formation, Fluorescence Polarization; settings: recombinant tau K18 P301L (four-repeat tau fragment) heparin fibrillization, Alexa594 FP; series mostly up to 100 µM
Outline: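 Human tau K18 (Q242-E372) P301L, 15 uM unlabeled plus 0.24 uM Alexa 594-labeled, in 100 mM sodium acetate pH 7 with 20 uM heparin; 6 hr at 37 C. ThT (30 uM) added, 1 hr ambient, then Alexa 594 FP read.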

Row | SMILES | Potency
1 | CCc1ccc(S(=O)(=O)Nc2cc(SCC(=O)O)c(O)c3ccccc23)cc1 | inconclusive: 8.91 µM [inhibitor, full curve]
2 | COC(=O)c1ccccc1NC(=O)CSc1nc2sc3c(c2c(=O)[nH]1)CCCC3 | inconclusive: 56.2 µM [inhibitor, partial curve, poor fit]
3 | CN(C)c1ccc(N2C(=O)CSC2=S)cc1 | inconclusive: 12.6 µM [inhibitor, partial curve, poor fit]
4 | CCn1nccc1C(=O)Nc1cc(Cl)cc(Cl)c1 | inconclusive: 35.5 µM [inhibitor, partial curve, poor fit]
5 | Cc1ccc(SCc2cc(=O)n(C)[nH]2)cc1 | inactive
6 | COc1ccc(-n2nc(C(=O)O)c3csc(N)c3c2=O)cc1 | inconclusive: 1.26 µM [inhibitor, full curve]
7 | Cc1cccc(NC(=O)c2c(NC(=O)c3ccccc3)sc3c2CCCC3)c1 | inconclusive: 10 µM [inhibitor, full curve]
8 | O=C(Nc1ccccc1)Nc1ccccc1 | inactive
9 | CC(=O)Nc1nc(C)c(-c2csc(Nc3ccc(O)cc3)n2)s1 | inconclusive: 50.1 µM [inhibitor, partial curve]
10 | CCOC(=O)c1ccc(-n2nc(C(=O)OCC)c3csc(N)c3c2=O)cc1 | inactive
11 | O=C(O)CC1S/C(=N/N=C/c2ccc(-c3ccc(Cl)cc3[N+](=O)[O-])o2)NC1=O (stereo not drawn) | inconclusive: 1.58 µM [inhibitor, full curve]
12 | NC(=O)c1nn(-c2ccccc2)c(=O)c2c(N)scc12 | inconclusive: 6.31 µM [inhibitor, full curve]
13 | Cc1cc2c(N)cccc2nn1 | active: 39.8 µM
14 | COc1ccc(NC(=O)Cn2cc(S(=O)(=O)N3CCN(c4ccccc4F)CC3)c3ccccc3c2=O)cc1Cl | inconclusive: 35.5 µM [inhibitor, partial curve, poor fit]
15 | Cn1[nH]c(CSc2ccc(Cl)cc2)cc1=O | inactive
16 | Cc1ccc(-c2ccc(/C=N/N=C3/NC(=O)C(CC(=O)O)S3)o2)c([N+](=O)[O-])c1 (stereo not drawn) | inconclusive: 50.1 µM [inhibitor, partial curve, poor fit]
17 | COC(=O)c1c(NC(=O)CCCOc2cccc(C)c2)sc2c1C(C(=O)OC)CC2 (stereo not drawn) | inconclusive: 1.41 µM [inhibitor, full curve]

Compounds 4 to 12 from above:
Row | SMILES | Potency
4 | CCn1nccc1C(=O)Nc1cc(Cl)cc(Cl)c1 | inconclusive: 35.5 µM [inhibitor, partial curve, poor fit]
5 | Cc1ccc(SCc2cc(=O)n(C)[nH]2)cc1 | inactive
6 | COc1ccc(-n2nc(C(=O)O)c3csc(N)c3c2=O)cc1 | inconclusive: 1.26 µM [inhibitor, full curve]
7 | Cc1cccc(NC(=O)c2c(NC(=O)c3ccccc3)sc3c2CCCC3)c1 | inconclusive: 10 µM [inhibitor, full curve]
8 | O=C(Nc1ccccc1)Nc1ccccc1 | inactive
9 | CC(=O)Nc1nc(C)c(-c2csc(Nc3ccc(O)cc3)n2)s1 | inconclusive: 50.1 µM [inhibitor, partial curve]
10 | CCOC(=O)c1ccc(-n2nc(C(=O)OCC)c3csc(N)c3c2=O)cc1 | inactive
11 | O=C(O)CC1S/C(=N/N=C/c2ccc(-c3ccc(Cl)cc3[N+](=O)[O-])o2)NC1=O (stereo not drawn) | inconclusive: 1.58 µM [inhibitor, full curve]
12 | NC(=O)c1nn(-c2ccccc2)c(=O)c2c(N)scc12 | inconclusive: 6.31 µM [inhibitor, full curve]

(next part)

Row | SMILES | Potency
18 | O=S(=O)(c1ccc(N=C2NN=C(c3cc(F)ccc3F)CS2)cc1)N1CCOCC1 | inconclusive: 3.98 µM [inhibitor, partial curve, poor fit]
19 | COC(=O)c1c(NC(=O)CCCOc2ccc(C(C)(C)C)cc2)sc2c1C(C(=O)OC)CC2 (stereo not drawn) | inconclusive: 63.1 µM [inhibitor, partial curve, poor fit]
20 | COc1ccc2[nH]c(=O)c(CNc3cccc(C)c3)cc2c1 | inconclusive: 7.08 µM [inhibitor, full curve]
21 | Cc1cc2c(NC(=O)Nc3ccccc3)cccc2nn1 | inconclusive: 28.2 µM [inhibitor, partial curve, poor fit]
22 | Cc1ccc(NC(=O)N2CCN(c3ccccn3)CC2)cc1 | inactive
23 | Cc1nc2ccccc2oc1=O | inactive
24 | COc1cccc(CNc2cccc3cccnc23)c1O | inconclusive: 63.1 µM [inhibitor, partial curve, poor fit]
25 | CN(C(=S)Nc1cccnc1)c1ccc(O)cc1 | inconclusive: 7.08 µM [inhibitor, full curve, poor fit]
26 | Cn1ncc(Cl)c1C(=O)Nc1cccc(Cl)c1 | inconclusive: 35.5 µM [inhibitor, full curve, poor fit]
27 | CCOC(=O)c1nn(-c2ccc(Cl)cc2)c(=O)c2c(N)scc12 | inconclusive: 3.55 µM [inhibitor, full curve]
28 | Nc1c(-c2ccncc2)cc[nH]c1=O | inconclusive: 50.1 µM [inhibitor, partial curve, poor fit]
29 | CC(=O)Nc1nc(C)c(-c2csc(Nc3cccc([N+](=O)[O-])c3)n2)s1 | inconclusive: 39.8 µM [inhibitor, partial curve, poor fit]
30 | CCN(CC)c1ccc2oc(=O)c(C)nc2c1 | inconclusive: 14.1 µM [inhibitor, full curve]
31 | O=C(Nc1nnc(S(=O)(=O)Nc2ccccc2)s1)C1CCCCC1 | inactive
32 | CC(C)Cn1c(O)c(/C=C2\C=NN=C2c2ccccc2)sc1=S | inconclusive: 1.12 µM [inhibitor, partial curve, poor fit]
33 | COC(=O)c1nn(-c2ccc(OC)cc2)c(=O)c2c(N)sc(C)c12 | inconclusive: 35.5 µM [inhibitor, partial curve, poor fit]
